From paper doi:10.1101/2023.05.30.542914 (bioRxiv, 2023)
No constants are given. Whether binding was seen depends on the method and setting. Binding seen in cells or lysates may run through a third protein. Some results given as binding are weak or reduced against the parent protein; the word gives no strength. Where a sequence is shown, tags or fusion partners need not be part of it.

Tests used:
myc-tagged Wnt7a-BirA = target: T1, myc-tagged Wnt7a-BirA (UniProt O00755); test: proximity ligation
T1 sequence: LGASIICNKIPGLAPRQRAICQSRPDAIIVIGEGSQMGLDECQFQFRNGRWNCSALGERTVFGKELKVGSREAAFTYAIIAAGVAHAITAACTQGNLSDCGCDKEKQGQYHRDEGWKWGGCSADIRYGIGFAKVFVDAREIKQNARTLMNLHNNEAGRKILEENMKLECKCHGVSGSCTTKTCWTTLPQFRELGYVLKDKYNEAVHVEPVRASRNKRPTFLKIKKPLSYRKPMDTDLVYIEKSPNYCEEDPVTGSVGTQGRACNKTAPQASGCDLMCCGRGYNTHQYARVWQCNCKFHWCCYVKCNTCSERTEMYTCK

[1] = target: T2, COPB2 (human (endogenous in HEK293T)) (UniProt P35606); test: co-IP
T2 sequence: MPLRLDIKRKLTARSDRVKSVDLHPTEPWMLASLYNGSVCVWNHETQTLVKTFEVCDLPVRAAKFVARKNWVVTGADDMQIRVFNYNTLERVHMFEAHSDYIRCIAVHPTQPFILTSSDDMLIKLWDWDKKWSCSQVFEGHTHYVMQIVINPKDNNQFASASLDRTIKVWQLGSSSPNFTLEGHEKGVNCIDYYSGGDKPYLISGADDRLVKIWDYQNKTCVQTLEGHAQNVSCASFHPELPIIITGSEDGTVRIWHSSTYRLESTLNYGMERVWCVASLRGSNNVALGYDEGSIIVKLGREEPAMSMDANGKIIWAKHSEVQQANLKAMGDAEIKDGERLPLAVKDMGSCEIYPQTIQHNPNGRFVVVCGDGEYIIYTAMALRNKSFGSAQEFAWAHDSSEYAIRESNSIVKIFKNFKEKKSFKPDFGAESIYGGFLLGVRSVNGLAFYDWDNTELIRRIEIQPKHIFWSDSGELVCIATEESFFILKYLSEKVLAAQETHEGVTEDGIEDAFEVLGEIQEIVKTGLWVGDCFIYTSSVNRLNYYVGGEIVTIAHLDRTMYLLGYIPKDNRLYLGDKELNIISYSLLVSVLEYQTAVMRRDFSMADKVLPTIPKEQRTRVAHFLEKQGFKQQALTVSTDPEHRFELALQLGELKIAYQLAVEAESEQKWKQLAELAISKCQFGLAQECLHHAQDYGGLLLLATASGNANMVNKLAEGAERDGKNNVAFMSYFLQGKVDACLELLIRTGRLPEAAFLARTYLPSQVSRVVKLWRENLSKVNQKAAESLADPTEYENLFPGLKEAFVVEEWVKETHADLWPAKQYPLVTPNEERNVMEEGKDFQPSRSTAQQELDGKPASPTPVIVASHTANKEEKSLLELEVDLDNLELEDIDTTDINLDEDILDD

[2] = target: T3, Wnt7a-HA, full length (Wnt7a-FL) (human) (UniProt O00755); test: co-IP
T3 sequence: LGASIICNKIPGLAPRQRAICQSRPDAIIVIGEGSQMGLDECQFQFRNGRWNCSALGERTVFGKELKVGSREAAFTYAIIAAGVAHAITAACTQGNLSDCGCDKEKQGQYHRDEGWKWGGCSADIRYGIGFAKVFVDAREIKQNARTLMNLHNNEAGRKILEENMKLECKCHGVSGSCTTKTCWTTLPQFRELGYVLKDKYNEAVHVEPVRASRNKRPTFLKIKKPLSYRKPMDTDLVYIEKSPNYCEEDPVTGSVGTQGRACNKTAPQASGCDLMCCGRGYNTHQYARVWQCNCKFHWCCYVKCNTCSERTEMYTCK

B1: COPA (mouse) (protein, UniProt Q8CIE6)
chain: MLTKFETKSARVKGLSFHPKRPWILTSLHNGVIQLWDYRMCTLIDKFDEHDGPVRGIDFHKQQPLFVSGGDDYKIKVWNYKLRRCLFTLLGHLDYIRTTFFHHEYPWILSASDDQTIRVWNWQSRTCVCVLTGHNHYVMCAQFHPSEDLVVSASLDQTVRVWDISGLRKKNLSPGAVESDVRGITGVDLFGTTDAVVKHVLEGHDRGVNWAAFHPTMPLIVSGADDRQVKIWRMNESKAWEVDTCRGHYNNVSCAVFHPRQELILSNSEDKSIRVWDMSKRTGVQTFRRDHDRFWVLAAHPNLNLFAAGHDGGMIVFKLERERPAYAVHGNMLHYVKDRFLRQLDFNSSKDVAVMQLRSGSKFPVFNMSYNPAENAVLLCTRASNLENSTYDLYTIPKDADSQNPDAPEGKRSSGLTAVWVARNRFAVLDRMHSLLIKNLKNEITKKIQVPNCDEIFYAGTGNLLLRDADSITLFDVQQKRTLASVKISKVKYVIWSADMSHVALLAKHAIVICNRKLDALCNIHENIRVKSGAWDESGVFIYTTSNHIKYAVTTGDHGIIRTLDLPIYVTRVKGNNVYCLDRECRPRVLTIDPTEFKFKLALINRKYDEVLHMVRNAKLVGQSIIAYLQKKGYPEVALHFVKDEKTRFSLALECGNIEIALEAAKALDDKNCWEKLGEVALLQGNHQIVEMCYQRTKNFDKLSFLYLITGNLEKLRKMMKIAEIRKDMSGHYQNALYLGDVSERVRILKNCGQKSLAYLSAATHGLDEEAESLKETFDPEKETIPDIDPNAKLLQPPAPIMPLDTNWPLLTVSKGFFEGSIASKGKGGALAADIDIDTVGTEGWGEDAELQLDEDGFVEAPEGLGEDVLGKGQEEGGGWDVEEDLELPPELDVPSGVSGSAEDGFFVPPTKGTSPTQIWCNNSQLPVDHILAGSFETAMRLLHDQVGVIQFGPYKQLFLQTYARGRTTYQALPCLPSMYSYPNRNWKDAGLKNGVPAVGLKLNDLIQRLQLCYQLTTVGKFEEAVEKFRSILLSVPLLVVDNKQEIAEAQQLITICREYIVGLCMEIERKKLPKETLDQQKRICEMAAYFTHSNLQPVHMILVLRTALNLFFKLKNFKTAATFARRLLELGPKPEVAQQTRKILSACEKNPTDACQLNYDMHNPFDICAASYRPIYRGKPVEKCPLSGACYSPEFKGQICRVTTVTEIGKDVIGLRISPLQFR
binding (myc-tagged Wnt7a-BirA): binds

B2: COPB2 (mouse) (protein, UniProt O55029 1-905)
chain: MPLRLDIKRKLTARSDRVKSVDLHPTEPWMLASLYNGSVCVWNHETQTLVKTFEVCDLPVRAAKFVARKNWVVTGADDMQIRVFNYNTLERVHMFEAHSDYIRCIAVHPTQPFILTSSDDMLIKLWDWDKKWSCSQVFEGHTHYVMQIVINPKDNNQFASASLDRTIKVWQLGSSSPNFTLEGHEKGVNCIDYYSGGDKPYLISGADDRLVKIWDYQNKTCVQTLEGHAQNVSCASFHPELPIIITGSEDGTVRIWHSSTYRLESTLNYGMERVWCVASLRGSNNVALGYDEGSIIVKLGREEPAMSMDANGKIIWAKHSEVQQANLKAMGDTEIKDGERLPLAVKDMGSCEIYPQTIQHNPNGRFVVVCGDGEYIIYTAMALRNKSFGSAQEFAWAHDSSEYAIRESNSIVKIFKNFKEKKSFKPDFGAESIYGGFLLGVRSVNGLAFYDWENTELIRRIEIQPKHIFWSDSGELVCIATEESFFILKYLSEKVLAAQETHEGVTEDGIEDAFEVLGEIQEIVKTGLWVGDCFIYTSSVNRLNYYVGGEIVTIAHLDRTMYLLGYIPKDNRLYLGDKELNIVSYSLLVSVLEYQTAVMRRDFSMADKVLPTIPKEQRTRVAHFLEKQGFKQQALTVSTDPEHRFELALQLGELKIAYQLAVEAESEQKWKQLAELAISKCQFSLAQECLHHAQDYGGLLLLATASGNASMVNKLAEGAERDGKNNVAFMSYFLQGKLDACLELLIRTGRLPEAAFLARTYLPSQVSRVVKLWRENLSKVNQKAAESLADPTEYENLFPGLKEAFVVEEWVKETHADLWPAKQYPLVTPNEERNVMEEAKGFQPSRPTAQQEPDGKPASSPVIMASQTTHKEEKSLLELEVDLDNLELEDIDTTDINLDEDILDD
binding (myc-tagged Wnt7a-BirA): binds

B3: Wnt7a-HA, full length (Wnt7a-FL) (protein, UniProt O00755 32-349)
chain: LGASIICNKIPGLAPRQRAICQSRPDAIIVIGEGSQMGLDECQFQFRNGRWNCSALGERTVFGKELKVGSREAAFTYAIIAAGVAHAITAACTQGNLSDCGCDKEKQGQYHRDEGWKWGGCSADIRYGIGFAKVFVDAREIKQNARTLMNLHNNEAGRKILEENMKLECKCHGVSGSCTTKTCWTTLPQFRELGYVLKDKYNEAVHVEPVRASRNKRPTFLKIKKPLSYRKPMDTDLVYIEKSPNYCEEDPVTGSVGTQGRACNKTAPQASGCDLMCCGRGYNTHQYARVWQCNCKFHWCCYVKCNTCSERTEMYTCK
binding [1]: binds

B4: COPB2 (protein, UniProt P35606 1-906)
chain: MPLRLDIKRKLTARSDRVKSVDLHPTEPWMLASLYNGSVCVWNHETQTLVKTFEVCDLPVRAAKFVARKNWVVTGADDMQIRVFNYNTLERVHMFEAHSDYIRCIAVHPTQPFILTSSDDMLIKLWDWDKKWSCSQVFEGHTHYVMQIVINPKDNNQFASASLDRTIKVWQLGSSSPNFTLEGHEKGVNCIDYYSGGDKPYLISGADDRLVKIWDYQNKTCVQTLEGHAQNVSCASFHPELPIIITGSEDGTVRIWHSSTYRLESTLNYGMERVWCVASLRGSNNVALGYDEGSIIVKLGREEPAMSMDANGKIIWAKHSEVQQANLKAMGDAEIKDGERLPLAVKDMGSCEIYPQTIQHNPNGRFVVVCGDGEYIIYTAMALRNKSFGSAQEFAWAHDSSEYAIRESNSIVKIFKNFKEKKSFKPDFGAESIYGGFLLGVRSVNGLAFYDWDNTELIRRIEIQPKHIFWSDSGELVCIATEESFFILKYLSEKVLAAQETHEGVTEDGIEDAFEVLGEIQEIVKTGLWVGDCFIYTSSVNRLNYYVGGEIVTIAHLDRTMYLLGYIPKDNRLYLGDKELNIISYSLLVSVLEYQTAVMRRDFSMADKVLPTIPKEQRTRVAHFLEKQGFKQQALTVSTDPEHRFELALQLGELKIAYQLAVEAESEQKWKQLAELAISKCQFGLAQECLHHAQDYGGLLLLATASGNANMVNKLAEGAERDGKNNVAFMSYFLQGKVDACLELLIRTGRLPEAAFLARTYLPSQVSRVVKLWRENLSKVNQKAAESLADPTEYENLFPGLKEAFVVEEWVKETHADLWPAKQYPLVTPNEERNVMEEGKDFQPSRSTAQQELDGKPASPTPVIVASHTANKEEKSLLELEVDLDNLELEDIDTTDINLDEDILDD
binding [2]: binds
